Reference: publication PMC4711005
Results are given in words; binding and its absence hold for the method and conditions named. For some of these results: Binding seen in cells or lysates may run through a third protein. Some entries that bind do so weakly or less than the wild type. For some of these results: Where a sequence is shown, tags or fusion partners need not be part of it.

Sequences of proteins named here, by UniProt entry; tags and fusion partners are left off.
UniProt Q5S006: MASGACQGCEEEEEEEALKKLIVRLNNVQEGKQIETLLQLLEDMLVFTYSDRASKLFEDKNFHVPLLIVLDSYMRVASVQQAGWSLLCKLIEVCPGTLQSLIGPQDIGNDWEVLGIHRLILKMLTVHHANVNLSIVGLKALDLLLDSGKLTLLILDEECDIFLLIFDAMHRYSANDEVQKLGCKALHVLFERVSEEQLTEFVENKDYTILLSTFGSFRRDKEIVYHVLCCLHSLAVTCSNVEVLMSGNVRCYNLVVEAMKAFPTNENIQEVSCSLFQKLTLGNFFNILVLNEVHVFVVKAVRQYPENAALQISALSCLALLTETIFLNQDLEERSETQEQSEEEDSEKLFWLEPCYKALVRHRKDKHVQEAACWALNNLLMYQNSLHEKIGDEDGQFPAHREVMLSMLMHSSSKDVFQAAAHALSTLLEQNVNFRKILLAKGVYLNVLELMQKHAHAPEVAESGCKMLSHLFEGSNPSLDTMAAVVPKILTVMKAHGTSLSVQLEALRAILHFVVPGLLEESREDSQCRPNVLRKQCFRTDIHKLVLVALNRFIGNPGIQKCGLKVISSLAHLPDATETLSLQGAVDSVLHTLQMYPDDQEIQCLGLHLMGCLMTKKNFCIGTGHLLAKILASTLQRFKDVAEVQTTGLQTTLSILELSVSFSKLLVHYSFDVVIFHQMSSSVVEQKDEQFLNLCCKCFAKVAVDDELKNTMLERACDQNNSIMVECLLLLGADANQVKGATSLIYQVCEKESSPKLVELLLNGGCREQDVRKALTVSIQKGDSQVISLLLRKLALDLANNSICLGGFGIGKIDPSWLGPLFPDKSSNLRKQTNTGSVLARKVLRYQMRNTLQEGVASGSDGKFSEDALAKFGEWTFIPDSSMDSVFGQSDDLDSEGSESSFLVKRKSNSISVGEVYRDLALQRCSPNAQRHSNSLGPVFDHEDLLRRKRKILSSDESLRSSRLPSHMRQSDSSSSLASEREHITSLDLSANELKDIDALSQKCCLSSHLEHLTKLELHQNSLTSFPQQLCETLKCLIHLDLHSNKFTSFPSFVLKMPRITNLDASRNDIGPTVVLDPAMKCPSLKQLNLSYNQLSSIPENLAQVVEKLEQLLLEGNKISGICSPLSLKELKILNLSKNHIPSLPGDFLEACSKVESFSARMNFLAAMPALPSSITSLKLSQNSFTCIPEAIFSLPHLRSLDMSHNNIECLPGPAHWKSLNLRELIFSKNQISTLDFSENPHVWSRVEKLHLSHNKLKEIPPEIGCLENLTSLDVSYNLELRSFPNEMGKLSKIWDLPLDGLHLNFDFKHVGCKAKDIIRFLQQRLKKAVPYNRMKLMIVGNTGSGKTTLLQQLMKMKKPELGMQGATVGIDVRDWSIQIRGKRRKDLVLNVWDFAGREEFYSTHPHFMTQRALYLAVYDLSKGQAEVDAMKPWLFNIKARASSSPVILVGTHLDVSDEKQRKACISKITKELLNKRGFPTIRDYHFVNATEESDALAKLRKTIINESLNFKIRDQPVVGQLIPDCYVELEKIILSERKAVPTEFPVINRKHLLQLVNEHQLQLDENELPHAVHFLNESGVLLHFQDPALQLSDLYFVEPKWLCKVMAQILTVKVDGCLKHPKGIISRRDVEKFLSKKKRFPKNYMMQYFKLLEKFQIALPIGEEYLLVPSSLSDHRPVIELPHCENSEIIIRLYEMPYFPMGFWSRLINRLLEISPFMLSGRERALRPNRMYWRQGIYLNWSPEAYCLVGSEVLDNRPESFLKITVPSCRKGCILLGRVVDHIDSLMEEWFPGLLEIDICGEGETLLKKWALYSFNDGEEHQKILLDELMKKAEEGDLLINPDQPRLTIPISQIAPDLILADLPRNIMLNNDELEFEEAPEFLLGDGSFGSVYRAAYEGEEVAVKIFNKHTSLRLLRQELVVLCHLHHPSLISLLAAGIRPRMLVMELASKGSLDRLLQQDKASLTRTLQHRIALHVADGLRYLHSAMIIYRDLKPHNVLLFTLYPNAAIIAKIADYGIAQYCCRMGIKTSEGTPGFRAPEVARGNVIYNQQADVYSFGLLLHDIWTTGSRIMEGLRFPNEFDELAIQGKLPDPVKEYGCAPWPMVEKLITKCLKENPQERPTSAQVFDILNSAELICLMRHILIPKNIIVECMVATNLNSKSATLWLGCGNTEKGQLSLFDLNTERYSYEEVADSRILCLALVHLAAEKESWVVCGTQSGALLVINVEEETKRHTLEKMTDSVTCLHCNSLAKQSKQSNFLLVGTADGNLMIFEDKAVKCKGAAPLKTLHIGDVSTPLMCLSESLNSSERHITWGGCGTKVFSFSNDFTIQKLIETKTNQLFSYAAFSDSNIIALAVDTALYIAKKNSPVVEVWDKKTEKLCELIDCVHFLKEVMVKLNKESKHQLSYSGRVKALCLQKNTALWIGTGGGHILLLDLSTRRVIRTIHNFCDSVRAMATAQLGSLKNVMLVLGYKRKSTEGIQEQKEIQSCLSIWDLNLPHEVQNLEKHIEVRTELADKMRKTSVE
UniProt Q5S007: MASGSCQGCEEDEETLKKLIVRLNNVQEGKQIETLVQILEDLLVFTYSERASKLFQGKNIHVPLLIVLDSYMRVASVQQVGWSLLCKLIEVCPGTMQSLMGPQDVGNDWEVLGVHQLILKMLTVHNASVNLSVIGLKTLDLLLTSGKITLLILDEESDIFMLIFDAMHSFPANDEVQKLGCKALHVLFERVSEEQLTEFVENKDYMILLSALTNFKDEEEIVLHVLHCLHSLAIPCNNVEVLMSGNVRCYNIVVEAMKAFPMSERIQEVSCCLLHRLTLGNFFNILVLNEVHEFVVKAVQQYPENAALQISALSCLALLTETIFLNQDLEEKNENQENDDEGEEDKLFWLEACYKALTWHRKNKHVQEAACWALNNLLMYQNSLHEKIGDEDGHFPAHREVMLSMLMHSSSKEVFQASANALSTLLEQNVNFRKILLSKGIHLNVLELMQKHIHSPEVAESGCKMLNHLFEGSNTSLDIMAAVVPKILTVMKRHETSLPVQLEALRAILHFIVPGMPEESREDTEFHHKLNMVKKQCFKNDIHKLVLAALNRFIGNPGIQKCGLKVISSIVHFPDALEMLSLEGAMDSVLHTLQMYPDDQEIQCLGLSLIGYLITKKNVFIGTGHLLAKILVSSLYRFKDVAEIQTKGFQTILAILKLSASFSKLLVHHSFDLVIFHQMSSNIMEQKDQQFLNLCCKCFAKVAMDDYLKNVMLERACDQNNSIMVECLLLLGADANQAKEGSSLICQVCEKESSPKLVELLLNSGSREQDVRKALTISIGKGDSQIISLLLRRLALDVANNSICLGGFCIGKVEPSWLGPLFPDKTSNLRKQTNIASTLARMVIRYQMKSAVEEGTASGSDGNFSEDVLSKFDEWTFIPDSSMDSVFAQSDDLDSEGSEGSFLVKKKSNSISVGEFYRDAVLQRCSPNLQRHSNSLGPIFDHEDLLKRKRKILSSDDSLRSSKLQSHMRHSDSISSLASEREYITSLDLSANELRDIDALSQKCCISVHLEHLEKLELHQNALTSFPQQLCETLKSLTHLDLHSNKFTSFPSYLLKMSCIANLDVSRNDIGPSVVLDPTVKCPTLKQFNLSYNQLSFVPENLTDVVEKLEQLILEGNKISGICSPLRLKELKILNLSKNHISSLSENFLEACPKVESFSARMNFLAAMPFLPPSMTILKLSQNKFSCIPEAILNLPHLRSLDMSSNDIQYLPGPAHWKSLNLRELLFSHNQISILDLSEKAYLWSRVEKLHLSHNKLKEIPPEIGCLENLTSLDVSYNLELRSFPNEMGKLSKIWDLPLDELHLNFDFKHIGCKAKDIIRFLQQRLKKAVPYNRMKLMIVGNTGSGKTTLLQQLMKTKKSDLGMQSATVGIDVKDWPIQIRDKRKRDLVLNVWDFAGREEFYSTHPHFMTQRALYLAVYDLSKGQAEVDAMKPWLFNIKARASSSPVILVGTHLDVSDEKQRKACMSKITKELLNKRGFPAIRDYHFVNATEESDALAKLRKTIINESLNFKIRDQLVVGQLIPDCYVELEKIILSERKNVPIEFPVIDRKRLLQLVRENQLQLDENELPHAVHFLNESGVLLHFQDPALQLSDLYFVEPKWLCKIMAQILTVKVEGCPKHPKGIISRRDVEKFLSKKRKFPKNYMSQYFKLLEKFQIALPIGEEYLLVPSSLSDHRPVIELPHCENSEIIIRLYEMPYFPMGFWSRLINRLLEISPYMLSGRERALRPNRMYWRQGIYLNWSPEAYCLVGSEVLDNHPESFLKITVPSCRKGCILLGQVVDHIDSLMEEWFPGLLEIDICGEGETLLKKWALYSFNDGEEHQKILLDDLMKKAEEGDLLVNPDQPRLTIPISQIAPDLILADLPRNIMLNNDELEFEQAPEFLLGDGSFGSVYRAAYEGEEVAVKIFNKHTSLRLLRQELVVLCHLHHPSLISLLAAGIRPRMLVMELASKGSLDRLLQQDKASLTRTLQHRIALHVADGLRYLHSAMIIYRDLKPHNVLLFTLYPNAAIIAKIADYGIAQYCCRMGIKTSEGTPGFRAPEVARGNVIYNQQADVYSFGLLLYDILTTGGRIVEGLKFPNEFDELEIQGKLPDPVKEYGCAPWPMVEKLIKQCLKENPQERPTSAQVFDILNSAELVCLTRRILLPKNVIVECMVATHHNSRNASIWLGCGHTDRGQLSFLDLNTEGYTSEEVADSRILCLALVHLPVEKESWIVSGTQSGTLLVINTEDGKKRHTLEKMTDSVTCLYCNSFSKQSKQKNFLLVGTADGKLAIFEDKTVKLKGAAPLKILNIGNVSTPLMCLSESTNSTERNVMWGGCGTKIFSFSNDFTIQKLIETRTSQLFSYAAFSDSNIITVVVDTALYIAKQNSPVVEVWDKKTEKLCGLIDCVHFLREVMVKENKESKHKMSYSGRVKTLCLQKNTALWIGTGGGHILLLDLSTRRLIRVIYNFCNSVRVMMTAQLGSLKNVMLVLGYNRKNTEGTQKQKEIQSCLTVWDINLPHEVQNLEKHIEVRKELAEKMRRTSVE

Key:
[1] = target: Flag-NSF full-length (human, aa 1-744) (human) (UniProt P46459); test: co-IP; Flag-NSF purified from transfected HEK293T lysate with anti-Flag M2 affinity gel; a band of endogenous NSF is found with it
[2] = target: T1, Flag-NSF N domain (aa 1-205) (human) (UniProt P46459); test: pull-down; Flag-NSF full-length or domains purified from HEK293T and bound to M2 Flag resin, adjusted to 2 μM, incubated with 600 μl mouse brain lysate (2.5 mg/ml) overnight at 4 °C; immunoblot with anti-LRRK2 (MJFF2); only the target purified
T1 sequence: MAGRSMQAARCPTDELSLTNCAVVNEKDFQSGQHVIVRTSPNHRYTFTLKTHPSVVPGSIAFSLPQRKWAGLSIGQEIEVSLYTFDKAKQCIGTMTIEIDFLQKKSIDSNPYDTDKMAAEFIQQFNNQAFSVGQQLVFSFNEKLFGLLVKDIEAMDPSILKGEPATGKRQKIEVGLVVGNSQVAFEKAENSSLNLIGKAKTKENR

[3] = target: Flag-NSF full-length (human, aa 1-744) (human) (UniProt P46459); test: as above
[4] = target: Flag-NSF full-length (human, aa 1-744) (human) (UniProt P46459); test: SEC; HEK293T lysates with Flag-NSF alone or with 2xMyc-LRRK2 separated on Superose 6 10/300 in 20 mM Tris-HCl pH 7.5, 150 mM NaCl, 0.06 % Triton X-100; fractions analysed by dot blot with anti-Flag

NSF, endogenous, HEK293T cells (from UniProt P46459 1-744)
binding [1]: binds

LRRK2, endogenous, mouse brain lysate (from UniProt Q5S006 1-2527)
binding [2]: binds | binding [3]: binds

2xMyc-LRRK2 (from UniProt Q5S007 1-2527) (enzyme)
binding [4]: binds
